# According to PubChem BioAssay AID504444 (National Center for Advancing Translational Sciences (NCATS), 2011):
# Among all 360,000 compounds or so, about 7,500 (2.1%) were called active. This list was built around the results that the source calls inconclusive (neither active nor inactive); the mix of calls is not that of the screen. The call rests on the fitted dose curve; in most records, active means well fitted inhibition curve with a large enough effect; inconclusive means small, poorly fitted or top-dose-only effect, or effect the other way; inactive means flat fitted curve, though single readings scatter. Where the call is inconclusive, the potency comes from a doubtful curve fit.
# Assay: Nrf2 qHTS screen for inhibitors; further: nearly all actives have a fitted effect of over 60% in size
# Conditions: A549 ARE-Fluc reporter, luciferase luminescence, 18-24 h; activity change, negative = inhibition: at 46 µM (top of the series)
# How it was run: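 A549 ARE_Fluc cells (5000/well, 5% FBS OPTI-MEM) pre-incubated 2 h, then treated with compounds 18-24 h at 37C/5% CO2 in concentration-response. CellTiter-Fluor viability read first; BugLite luciferase luminescence after 15 min at room temperature gives Nrf2 activity.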
# On the % scale 0 is the no-effect control and ±100 the full control effect; potency means the concentration at half of the fitted maximal effect.
SMILES,Potency,"activity change, negative = inhibition"
Cn1c(/C(C#N)=C/c2ccc(O)cc2)nc2ccccc21,"inconclusive: 6.51 µM [activator, full curve, poor fit]",–
Cc1ccccc1Oc1ccc2c(c1)[C@@H]1C[C@H](N(C)C(=O)Nc3cc(Cl)cc(Cl)c3)[C@H]([C@H](C)O)C(=O)N1CC2,"inconclusive: 29.1 µM [falling, single point]",–
CC1C(=O)Nc2ccc(S(=O)(=O)NCc3ccc(Cl)cc3)cc2NC1=O (stereo not given),"inconclusive: 16.4 µM [falling, partial curve, poor fit]",–
CN1CCN(c2ccc(NC(=O)c3ccc(Oc4ccccc4)cc3)cc2)CC1,–,inactive: 6.31%
CCN(C(=O)COC(=O)/C=C/c1nc2ccccc2s1)c1c(N)n(Cc2ccccc2)c(=O)[nH]c1=O,–,inactive: -19.4%
CCc1ccc(NCc2cccn2-c2nnc(N3CCCCCC3)s2)cc1,"inconclusive: 3.26 µM [activator, full curve, poor fit]",–
O=C(COc1cccc2c1CCNC2=O)Nc1ccc(Cl)cc1,"inconclusive: 3.66 µM [falling, partial curve]",–
CN(C)C1CCN(Cc2cc(COCc3ccccc3)c3cccnc3c2O)C1 (stereo not given),active: 20.6 µM,–
NC(=O)CC(NC(=O)c1ccccc1)c1ccc(N2CCN(c3ccccc3)CC2)c([N+](=O)[O-])c1 (stereo not given),"inconclusive: 20.6 µM [falling, single point]",–
O=C(COC(=O)c1ccc(F)c(S(=O)(=O)N2CCOCC2)c1)c1ccc(Br)cc1,"inconclusive: 2.31 µM [activator, partial curve, poor fit]",–
CC1C(=O)Nc2ccccc2N1C(=O)c1ccc(F)cc1 (stereo not given),"inconclusive: 10.3 µM [falling, partial curve, poor fit]",–
CC1=C(C(=O)OCC2CCCO2)C(c2ccc(C)o2)C2=C(CC(c3ccc(F)cc3)CC2=O)N1 (stereo not given),"inconclusive: 32.6 µM [falling, single point]",–
O=C(CC1SC(=Nc2ccccc2)N(Cc2ccccn2)C1=O)Nc1ccc(Br)cc1 (stereo not given),"inconclusive: 10.3 µM [falling, single point]",–
COc1ccc(OC)c(-c2cc(C(=O)Nc3cnn(Cc4ccc(Cl)cc4Cl)c3)no2)c1,"inconclusive: 20.6 µM [falling, single point]",–
O=C(c1ccco1)N1CCc2ccccc21,"inconclusive: 18.4 µM [activator, single point]",–
CN(C)S(=O)(=O)c1cccc(NC(=O)c2cc3ccccc3o2)c1,"inconclusive: 5.8 µM [activator, single point]",–
CNC(=O)c1nnsc1S(=O)(=O)c1ccc(Cl)cc1,–,inactive: -14%
COc1ccc(C2C3=C(CC(C)(C)CC3=O)Nc3n[nH]c(C)c32)cc1 (stereo not given),–,inactive: 20.6%
CCCCNC(=O)C1CC(c2cccc([N+](=O)[O-])c2)=NO1 (stereo not given),"inconclusive: 23.1 µM [activator, single point]",–
Cc1[nH]c2ccccc2c1/C=C(\C#N)C(=O)NCc1ccccc1,"inconclusive: 0.291 µM [falling, full curve, poor fit]",–
Cc1ccc(CN2CCSc3ccc(C(=O)NCc4ccco4)cc32)cc1,–,inactive: -15.4%
O=C(O)c1ccc2c(c1)C(=O)N([C@H](Cc1ccc(C(F)(F)F)cc1)C(=O)O)C2=O,–,inactive: 14.2%

SMILES,Potency,"activity change, negative = inhibition"
CCOc1ccc(/C=C/c2nc3ccccc3n2S(=O)(=O)c2ccc(Br)cc2)cc1,"inconclusive: 4.61 µM [activator, partial curve]",–
O=C(/C=C/c1ccc(F)cc1)NC(=S)Nc1ccccc1,"inconclusive: 20.6 µM [falling, single point]",–
COc1ccc([N+](=O)[O-])cc1NC(=O)Nc1ccccc1,"inconclusive: 23.1 µM [falling, partial curve, poor fit]",–
Cc1ccccc1CC(=O)N1CCN(S(=O)(=O)c2ccc(Cl)s2)CC1,"inconclusive: 16.4 µM [falling, partial curve]",–
Cc1ccc(OCC(=O)N2N=C(C(F)(F)F)CC2(O)C(C)(C)C)cc1C (stereo not given),"inconclusive: 16.4 µM [falling, single point]",–
COc1ccc(/C=N/Nc2ncnc3scc(-c4ccccc4)c23)cc1OC,"inconclusive: 25.9 µM [falling, single point]",–
O=C(NNc1ccc(Cl)cc1)c1sccc1Cl,"inconclusive: 18.4 µM [falling, partial curve, poor fit]",–
COc1ccccc1NC(=O)Nc1ccc(NC(=O)c2ccccc2O)cc1,"inconclusive: 25.9 µM [falling, partial curve, poor fit]",–
Cc1c(C(=O)OCC(=O)N2CCCCC2C)oc2ccccc12 (stereo not given),"inconclusive: 20.6 µM [activator, partial curve, poor fit]",–
Nc1nccnc1C(=O)OCC(=O)C12CC3CC(CC(C3)C1)C2,–,inactive: 20.2%
CCc1nnc(NC(=O)CSc2nnc(Cc3ccccc3)n2Cc2ccccc2)s1,"inconclusive: 23.1 µM [falling, single point]",–
COc1ccc(NC(=O)c2c(-c3c(Cl)cccc3Cl)noc2C)c(OC)c1,"inconclusive: 29.1 µM [falling, single point]",–
Cc1nnc2c(Nc3cccc(O)c3)nc3ccccc3n12,–,inactive: 3.22%
N#CC1(c2ccc(NC(=O)c3ccccc3F)cc2)CCCC1,"inconclusive: 2.59 µM [activator, partial curve]",–
COc1cccc(C2c3c(ncn(-c4ccccc4C#N)c3=N)Oc3ccc4ccccc4c32)c1 (stereo not given),"inconclusive: 2.06 µM [activator, full curve, poor fit]",–
COC(=O)Nc1ccc(S(=O)(=O)N2CCC(C(=O)N3CCC(C)CC3)CC2)cc1,"inconclusive: 8.2 µM [falling, partial curve]",–
Cc1cc(-c2csc(N)n2)c(C)n1Cc1ccco1,–,inactive: 12.7%
Cc1ccc(NC(=O)CN2C(=O)N/C(=C/c3ccc(C)o3)C2=O)cc1,–,inactive: 1.91%
COc1ccc(C(=O)C2C(=O)C(=O)N(Cc3ccco3)C2c2cccs2)cc1 (stereo not given),–,inactive: 3.14%
O=C(c1cc(COc2ccc(F)cc2F)on1)N1CCSCC1,"inconclusive: 2.59 µM [activator, full curve]",–
O=C(CC1Sc2ccccc2NC1=O)NNc1ccc(Cl)cc1Cl (stereo not given),"inconclusive: 32.6 µM [falling, single point]",–
Cc1ccc(NC(=O)Nc2ccc(F)cc2F)c(OC(F)F)c1,"inconclusive: 3.66 µM [falling, full curve]",–

SMILES,Potency,"activity change, negative = inhibition"
COc1ccc(C)cc1NS(=O)(=O)c1ccc2c(c1)n(C)c(=O)n2C,"inconclusive: 6.51 µM [falling, partial curve, poor fit]",–
Cc1ccc(S(=O)(=O)NCC(=O)N(c2ccccc2)C(C(=O)NCc2ccccc2)c2ccco2)cc1 (stereo not given),"inconclusive: 29.1 µM [falling, single point]",–
COC(=O)c1ccccc1Sc1c(/C=N/OCc2ccc(Cl)cc2)c(C(F)(F)F)nn1C,"inconclusive: 13 µM [falling, partial curve, poor fit]",–
CC1CN(C(=O)CN2C(=O)NC3(CCCCCC3)C2=O)CC(C)O1 (stereo not given),"inconclusive: 3.26 µM [activator, single point]",–
COc1ccc(CC2=C(O)c3ccccc3C(=O)C2=O)cc1,"inconclusive: 8.2 µM [falling, partial curve, poor fit]",–
COc1ccc(CCNC(=O)c2cc(-c3ccncc3)nc3c(Cl)cccc23)cc1OC,"inconclusive: 14.6 µM [activator, partial curve]",–
COc1ccc2c(c1)CC/C(=C\C=C\c1ccccc1OC)C2=O,"inconclusive: 11.6 µM [falling, partial curve, poor fit]",–
CCN(c1ccccc1)S(=O)(=O)c1ccc(C(=O)Nc2nnc(COC)o2)cc1,active: 23.1 µM,–
CCCn1c(=O)c2[nH]c(-c3ccc(OCC(=O)Nc4ccc(C#N)cc4)cc3)nc2n(CCC)c1=O,–,inactive: 13.2%
O=S(=O)(c1ccccc1)c1nc(NC2CC2)sc1Cl,"inconclusive: 11.6 µM [falling, partial curve, poor fit]",–
Cc1cc(S(=O)(=O)N2CCOCC2)ccc1OCC(=O)NCC1CCCO1 (stereo not given),"inconclusive: 0.103 µM [falling, full curve, poor fit]",–
CC1CCCN(S(=O)(=O)c2cc(C(=O)NCc3ccco3)ccc2Cl)C1 (stereo not given),"inconclusive: 32.6 µM [falling, single point]",–
COc1ccc(NC(=O)Cn2c(=O)n(Cc3ccc(C(=O)NCc4ccccc4Cl)cc3)c(=O)c3ccccc32)cc1OC,"inconclusive: 0.0461 µM [falling, full curve]",–
Cc1ccc(-n2c(C)cc(/C=N/NC(=O)c3ccc(CN4CCOCC4)cc3)c2C)cc1,"inconclusive: 18.4 µM [falling, single point]",–
CC(C)CCn1nnnc1CN1CCN(C(c2ccccc2)c2ccccc2)CC1,"inconclusive: 32.6 µM [falling, single point]",–
COC(=O)Cc1ccc(NC(=S)N2CCN(c3cc(Cl)ccc3C)CC2)cc1,"inconclusive: 8.2 µM [falling, partial curve]",–
Cc1onc(-c2ccccc2Cl)c1C(=O)N1CCN(C/C=C/c2ccccc2)CC1,–,inactive: -29.8%
CCOC(=O)C1(CCc2ccccc2)CCN(Cc2ccc(O)cc2)CC1,–,inactive: 8.67%
CN1C(=O)C(CC(=O)Nc2ccc(F)cc2)N(CCCc2ccccc2)C1=S (stereo not given),"inconclusive: 29.1 µM [falling, single point]",–
O=C(CCCc1nc(-c2ccccc2Cl)no1)NC1CCCC1,active: 1.16 µM,–
Cc1cccc(NS(=O)(=O)c2ccc(C(=O)NCC(c3ccco3)N3CCCCC3)cc2)c1C (stereo not given),active: 20.6 µM,–

# Arranged by SMILES length (smallest number first): part of the list above
SMILES,Potency,"activity change, negative = inhibition"
O=C(CCCc1nc(-c2ccccc2Cl)no1)NC1CCCC1,active: 1.16 µM,–
COc1ccc(C)cc1NS(=O)(=O)c1ccc2c(c1)n(C)c(=O)n2C,"inconclusive: 6.51 µM [falling, partial curve, poor fit]",–
CCN(c1ccccc1)S(=O)(=O)c1ccc(C(=O)Nc2nnc(COC)o2)cc1,active: 23.1 µM,–
COc1ccc(CCNC(=O)c2cc(-c3ccncc3)nc3c(Cl)cccc23)cc1OC,"inconclusive: 14.6 µM [activator, partial curve]",–
Cc1ccc(S(=O)(=O)NCC(=O)N(c2ccccc2)C(C(=O)NCc2ccccc2)c2ccco2)cc1 (stereo not given),"inconclusive: 29.1 µM [falling, single point]",–
